In PubChem BioAssay AID2685 (National Center for Advancing Translational Sciences (NCATS), 2010):
The other results are listed elsewhere or left out. The main result of the screen is listed elsewhere. These columns were measured beside it and carry no call. Compounds called inactive in the main read-out are mostly missing here. Words in brackets tell the shape of the fitted curve; partial curves, single points and poor fits give uncertain potencies.

Experiment: qHTS Assay for Lipid Storage Modulators in Drosophila S3 Cells;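 for cell number change: cells counted by Cell Tracker Red CMTPX staining in the red channel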
Conditions: BODIPY lipid droplet fluorescence, 18-24 h; for cell number change: measured here: cell count max response, cells fed with added oleic acid
Procedure, shortened: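 Drosophila S3 cells loaded with oleic acid (400 uM, as added) and compounds at several concentrations; lipid droplets imaged by 488-nm laser-scanning cytometry, 500–530 nm intensity and object ratio to cell channel. Percent activity normalized to 20 uM Triacsin C.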

[1] = measured here: cell number channel AC50, cells fed with added oleic acid
[2] = measured here: lipid fluorescence (Fed channel) AC50, cells fed with added oleic acid

Cc1ccc(S(=O)(=O)Nc2ccccc2N2CCOCC2)cc1
cell number change: 12.5% | AC50 [1]: 0.259 µM [rising, full curve, poor fit]

Cc1c(/C=N/n2cnnc2)c2ccccc2n1C
AC50 [1]: 6.51 µM [rising, single point]

O=c1cc(-c2ccc(Cl)cc2)[nH][nH]1
cell number change: -73.1% | AC50 [1]: 29.1 µM [falling, partial curve, poor fit] | AC50 [2]: 0.651 µM [falling, single point]

CC(C)(Cc1ccccc1)/[N+]([O-])=C\c1ccc(C(F)(F)F)cc1
cell number change: -4.75% | AC50 [1]: 0.517 µM [rising, single point]

O=C(COC(=O)CNC(=O)c1ccco1)NCCN1C(=O)CSC1=O
cell number change: -10.5%

O=C(Cn1ccc(NC(=O)OCc2ccccc2)nc1=O)NCCc1c[nH]c2ccccc12
cell number change: -26.9% | AC50 [2]: 29.1 µM [falling, single point]

CC(C)=CC(=O)N1CC[C@@H](N2CCN(c3ccccc3F)CC2)[C@H](O)C1
cell number change: 2.62% | AC50 [2]: 3.66 µM [rising, full curve]

Cc1ccc(-c2csc3ncnc(N4CCN(C(=O)c5ccccc5)CC4)c23)cc1
cell number change: 13.5%

Cc1cc(NC(=O)CSc2nc3ccccc3n2CC(=O)N2CC(C)CC(C)C2)no1 (stereo not drawn)
cell number change: 25.8% | AC50 [2]: 4.11 µM [rising, full curve]

Cc1ccc(C(=O)NC(=S)Nc2c(C)ccc3nsnc23)cc1
cell number change: 11.1% | AC50 [1]: 5.17 µM [falling, single point] | AC50 [2]: 6.51 µM [falling, single point]

C/C(=N/NS(=O)(=O)c1ccc(CC(C)C)cc1)c1ccncc1
cell number change: -32.3% | AC50 [1]: 1.16 µM [falling, single point]

O=C(O)c1ccc(NC(=O)C2C3CCC(C3)C2C(=O)O)cc1 (stereo not drawn)
cell number change: 6.62% | AC50 [2]: 0.58 µM [falling, full curve]

c1nc2ccc(Cc3ccc4nc[nH]c4c3)cc2[nH]1
cell number change: -21.5% | AC50 [2]: 6.51 µM [rising, single point]

COC(=O)[C@@]1(Cc2ccc(OC)cc2)[C@H]2c3cc(C(=O)N4CCCC4)n(CCc4c[nH]c5ccc(O)cc45)c3C[C@H]2CN1C(=O)c1ccccc1
cell number change: 9.36% | AC50 [1]: 0.0326 µM [rising, partial curve, poor fit]

Fc1cccc(/C=N/NC(=S)Nc2ccccc2Cl)c1
cell number change: 7.21% | AC50 [2]: 0.461 µM [rising, partial curve]

COc1ccc(CNC(=O)CNS(=O)(=O)c2ccc(Cl)cc2)cc1
cell number change: -36.7% | AC50 [1]: 0.82 µM [falling, full curve, poor fit] | AC50 [2]: 0.731 µM [falling, full curve]

CCOC(=O)c1sc(Nc2nc(C)cc(OC)n2)nc1C
cell number change: -39.3% | AC50 [1]: 29.1 µM [falling, single point] | AC50 [2]: 29.1 µM [falling, single point]

Cc1ccc(Oc2ncc(-c3ccc(Cl)cc3)cn2)cc1
cell number change: 16% | AC50 [2]: 25.9 µM [rising, single point]

O=C(O)c1ccccc1-c1nc2cc(Cl)ccc2c(=O)n1O
cell number change: -63.2% | AC50 [1]: 16.4 µM [falling, partial curve] | AC50 [2]: 5.8 µM [falling, full curve, poor fit]

CN(CC(=O)Nc1ccccc1Br)C(=O)c1cccc(S(=O)(=O)NCc2ccccc2)c1
cell number change: 42.8% | AC50 [1]: 18.4 µM [rising, single point]

Cc1cc(CSc2ccccc2C(=O)O)on1
cell number change: 9.58%

O=C(NCCc1c[nH]c2ccccc12)c1cnccn1
cell number change: 28.9% | AC50 [1]: 4.61 µM [rising, full curve, poor fit] | AC50 [2]: 2.59 µM [rising, full curve]

Cc1ccccc1Nc1nc(N)nc(CSc2nnnn2C)n1
AC50 [2]: 2.59 µM [rising, single point]

COc1ccc(C(=O)OCc2ccccc2F)cc1S(=O)(=O)N1CCCC1
cell number change: 18.2% | AC50 [2]: 9.2 µM [falling, partial curve]

N#Cc1cccc(C(=O)Nc2cccc(S(=O)(=O)N3CCCC3)c2)c1
cell number change: -25.4% | AC50 [2]: 23.1 µM [falling, partial curve]

CC(=O)Nc1ccc(NC(=O)CSc2nnc(NC(=O)c3ccco3)s2)cc1
cell number change: 24.2% | AC50 [2]: 3.26 µM [rising, full curve]

CC(C)NC(=O)c1ccccc1NC(=O)Cc1ccc([N+](=O)[O-])cc1
cell number change: 109% | AC50 [1]: 0.13 µM [falling, full curve, poor fit] | AC50 [2]: 0.116 µM [falling, full curve, poor fit]

COCCNC(=S)Nc1cc2oc3ccccc3c2cc1OC
cell number change: 20.9% | AC50 [2]: 0.259 µM [rising, full curve]

CCCNC(=O)COC(=O)CCC(=O)c1ccc(F)cc1
cell number change: 7.89% | AC50 [2]: 23.1 µM [falling, single point]

CCOC(=O)Cn1c(-c2ccc(OC)cc2)c(-c2ccc(OC)cc2)nnc1=O
cell number change: -32% | AC50 [1]: 11.6 µM [falling, partial curve]

O=C(C1=C(O)C(=O)N(c2ncccn2)C1c1cccc(Cl)c1)c1ccco1 (stereo not drawn)
AC50 [2]: 4.61 µM [falling, single point]

COc1cccc(-n2nnnc2SCC(=O)NC2CCCCC2)c1
cell number change: 264% | AC50 [2]: 29.1 µM [falling, single point]

CC1CCC2(CC1)NC(=O)N(CC(=O)Nc1cccc(S(=O)(=O)N3CCCC3)c1)C2=O (stereo not drawn)
cell number change: -23.7%

O=C(CNS(=O)(=O)c1ccccc1F)Nc1ccc(N2CCOCC2)cc1
cell number change: 46.3% | AC50 [1]: 29.1 µM [rising, single point] | AC50 [2]: 29.1 µM [rising, single point]

O=C(C1CC(c2ccccc2O)=NO1)N1CCCC1 (stereo not drawn)
cell number change: 2.43% | AC50 [2]: 29.1 µM [falling, single point]

O=C(Nc1ccc2ncccc2c1)c1ccccc1Br
cell number change: 10.7%

COc1ccc(C(=O)NCCn2nc(C)cc2C)cc1OC1CCN(C(C)=O)CC1
cell number change: 0.521% | AC50 [2]: 8.2 µM [rising, partial curve]

O=C(CNCCC1=CCCCC1)Nc1ccccc1N1CCCCCC1
cell number change: -21.7%

Cc1ccc(S(=O)(=O)N2CCN(C(=O)c3ccc(S(=O)(=O)N4CCCC4)cc3)CC2)cc1
cell number change: -16.7% | AC50 [2]: 2.59 µM [falling, partial curve]

O=C(O)CCc1ccc(-c2ccc(Br)cc2)n1CC(=O)O
cell number change: -62%

CCS(=O)(=O)N1CCC(C(=O)NCCc2ccc(C)cc2)CC1
cell number change: -164% | AC50 [1]: 0.461 µM [falling, full curve] | AC50 [2]: 6.51 µM [falling, partial curve]

NC(N)=N/N=C/c1ccccc1
cell number change: -19.3% | AC50 [1]: 3.26 µM [falling, single point] | AC50 [2]: 6.51 µM [falling, single point]

CCOc1ccccc1-c1nc2c([nH]1)c(=O)n(C)c(=O)n2C
cell number change: 10.7%

COC(=O)c1ccccc1S(=O)(=O)Nc1ccc2cn[nH]c2c1
cell number change: -12% | AC50 [2]: 0.058 µM [rising, full curve, poor fit]

Cc1cccc(OCCNC(=S)NC(=O)c2cccnc2)c1
cell number change: 8.79% | AC50 [2]: 6.51 µM [rising, partial curve]

COC(CN(C(=O)CCl)C(C(=O)NC1CCCCC1)c1ccccc1C)OC (stereo not drawn)
cell number change: -20.8% | AC50 [2]: 9.2 µM [falling, partial curve, poor fit]

CCN1C(=O)C2(C(C#N)=C(N)Oc3cc(C)oc(=O)c32)c2ccccc21 (stereo not drawn)
cell number change: 16.4% | AC50 [2]: 18.4 µM [rising, single point]

COC(=O)c1ccc(CN2CCCC(C(=O)c3ccccc3OC)C2)cc1 (stereo not drawn)
cell number change: 6.32% | AC50 [2]: 5.8 µM [falling, single point]

Cc1ccc(SCc2nc3ccccc3n2CC(=O)Nc2ccccc2)cc1
cell number change: -11.1%

CCCN1CCN(C(=S)Nc2sc(CC)cc2C(=O)OC)CC1
cell number change: -5.11% | AC50 [2]: 32.6 µM [falling, single point]

CC(C)C(C)(C#N)NC(=O)CSc1nc(C2CCCCC2)n(-c2ccccc2)n1 (stereo not drawn)
AC50 [1]: 0.651 µM [falling, single point]

COc1cc(/C=N/NC(N)=S)ccc1OCC(=O)Nc1ccc(C)c(C)c1
cell number change: -39.1% | AC50 [1]: 16.4 µM [falling, single point] | AC50 [2]: 0.731 µM [rising, full curve]

CCN(CC)c1ccc(NS(=O)(=O)c2ccc(OC)cc2)cc1
cell number change: -4.04% | AC50 [1]: 0.082 µM [falling, full curve, poor fit]

Cc1ccc(-c2nc3ncccc3o2)cc1NC(=O)c1cccnc1
cell number change: -33.5% | AC50 [1]: 29.1 µM [falling, single point]

c1ccc2c(c1)oc1c(Nc3ccc4c(c3)OCO4)ncnc12
cell number change: -22%

CCSc1nnc(NC(=O)c2cccc(S(=O)(=O)N(C)c3ccccc3)c2)s1
cell number change: 33.4% | AC50 [1]: 18.4 µM [rising, single point] | AC50 [2]: 20.6 µM [rising, partial curve]

CC1Cc2ccccc2N1C(=O)CSc1nnc(CNc2ccccc2)o1 (stereo not drawn)
AC50 [1]: 3.26 µM [rising, partial curve, poor fit] | AC50 [2]: 0.517 µM [rising, full curve]

CCOc1ccccc1CNS(=O)(=O)c1ccc2c(c1)oc(=O)n2C
cell number change: -0.816% | AC50 [2]: 0.13 µM [falling, full curve, poor fit]

C/C(CC(=O)NC1CCCCC1)=N\NC(=O)c1ccccc1C
cell number change: -5.26%

Cc1ccc(OCC(=O)NNC(=O)CSc2nnc(-c3ccc(C)cc3)n2C)cc1
cell number change: -31.4% | AC50 [1]: 0.731 µM [rising, partial curve, poor fit] | AC50 [2]: 3.26 µM [falling, partial curve, poor fit]
